Results published in PubChem BioAssay AID624297 (National Center for Advancing Translational Sciences (NCATS), 2012).
Among all 340,000 compounds or so, about 6,200 (1.8%) were called active. Inconclusive means that the source gave no clear call. Such entries were picked first, then a sample of the others. Calls follow the shape of the dose curve; as a rule, active = well fitted activation curve with a large enough effect; inconclusive = small, poorly fitted or top-dose-only effect; inactive = no such curve, though single readings can be large or run the other way. A potency beside an inconclusive call is a rough fit, not a confirmed value.

assay: A quantitative high throughput screen for small molecules that induce DNA re-replication in SW480 colon adenocarcinoma cells.; also: nearly all actives have a fitted effect of over 55% in size; as to re-replication activation: % of control where 0% means no effect; conditions: Hoechst DNA content imaging, 48 h; re-replication activation: at 46.1 µM (top of the series) unless noted
Source text: H Molecular Libraries Probe Production Network [MLPCN] NIH Chemical Genomics Center [NCGC] MLPCN Grant: Fast Track K99 CA136555 Assay Provider: Melvin DePamphilis, NICHD, NIH Assay Overview Eukaryotic cells normally restrict genome duplication to once per cell division. When this process is aberrant, DNA re-replication occurs when cells reinitiate DNA replication before the first round of replication is complete. DNA re-replication induces the DNA damage response, arrests cell proliferation, and triggers apoptosis. The cell cycle components cyclin A, Cdt-1, Cdc6 and geminin are critical regulators of this process and their misregulation results in DNA re-replication in normal and cancer cells. To identify compounds that induce re-replication in normal cells, an image-based assay was used to measure DNA content of nuclei, as detected by the fluorescent DNA binding dye, Hoechst. Cell nuclei were imaged by a fluorescence scanning plate imager and compounds that induce DNA re-replication were identified by the increase of nuclei with elevated fluorescence intensity
For screening, 250 cells in 5 uL/well were dispensed into black clear 1536-well plates (Aurora) using a solenoid-based dispenser. Following transfer of 23 nL compound or DMSO vehicle by a pin tool, the plates were incubated 48 hr at 37 C and 5% CO2. After addition of 1 uL/well Hoescht stain, the plates were incubated 40 min at 37 C, 5% CO2 and total intensity of fluorescent objects (nuclei) were enumerated by an Acumen Explorer Ex3 (TTP LabTech) fluorescence scanning plate imager (405 nm excitation, 500-530 nm emission). Keywords: NIH Roadmap, MLPCN, MLI, MLSMR, qHTS, NCGC, DNA replication, cancer
Potency is read from the fitted curve at half-maximal effect.

Structure (SMILES) | Potency | re-replication activation
N#CCCn1cc(C(=O)Nc2ccccc2Br)c(-c2cccs2)n1 | inconclusive: 29.1 µM [activator, single point] | 
O=C(c1ccc([N+](=O)[O-])s1)N1CCN(c2cccc(Cl)c2)CC1 | inconclusive: 18.4 µM [activator, single point] | 
CC1=C(C(=O)Nc2ccc(C)cc2C)C(c2cccc(Cl)c2)n2nc(C(=O)OC(C)C)nc2N1 (stereo not drawn) | inconclusive: 23.1 µM [activator, partial curve, poor fit] | 
O=C(Nc1cc(F)cc(F)c1)c1ccc(NCCCN2CCCCCC2)c([N+](=O)[O-])c1 | inconclusive: 23.1 µM [activator, partial curve, poor fit] | 
CC(NC(=O)Cc1ccc(S(=O)(=O)N2CCOCC2)s1)c1ccc(Cl)c(Cl)c1 (stereo not drawn) |  | inactive: 1.22%
Cc1cc(C)c(NC(=S)N2CCN(c3ccc([N+](=O)[O-])cn3)CC2)cc1C |  | inactive: -7.98%
COc1cc(NC(=O)c2c(F)cccc2F)nc(OC)n1 | inconclusive: 5.62 µM [activator, partial curve, poor fit] | 
CCOC(=O)[C@H]1[C@H]2COc3ccc(Br)cc3[C@@H]2N2C(=O)CN(Cc3ccc(Cl)cc3)C(=O)[C@@]12C |  | inactive: -1.11%
CCCC(C)C(=O)Nc1ccc(S(=O)(=O)Nc2nccc(C)n2)cc1 (stereo not drawn) |  | inactive: -2.22%
Cc1ccc(C(=O)c2c3ccc([N+](=O)[O-])cc3[n+]([O-])n2CCC(N)=O)cc1 | inconclusive: 6.51 µM [activator, single point] | 
COc1cc(OC)cc(C(=O)N/N=C/c2ccc(OC)c(COc3ccc(F)cc3)c2)c1 | active: 5.8 µM | 
Fc1ccccc1CSc1nnc(-c2cccnc2)o1 |  | inactive: -5.92%
O=C(CCl)NCCNC(=O)c1cc(OCC(F)(F)F)ccc1OCC(F)(F)F | inconclusive: 29.1 µM [activator, partial curve, poor fit] | 
CC1CCCN(CCOCCSc2ccccc2)C1 (stereo not drawn) | inconclusive: 2.91 µM [activator, partial curve, poor fit] | 
COC(=O)[C@@]1(C)[C@H]2C(=O)N(C)C(=O)[C@H]2[C@H]2CN=C(SCc3ccccc3)N21 | inconclusive: 1.16 µM [activator, single point] | 
COC(=O)C(Cc1ccccc1)NC(=O)CNC(=O)c1sc2ccccc2c1Cl (stereo not drawn) |  | inactive: -7.55%
CCOC(=O)c1ccc(Nc2cc(C)nc(-c3ccccc3)n2)cc1 | inconclusive: 29.1 µM [activator, single point] | 

Structure (SMILES) | Potency | re-replication activation
OCCC1CN(Cc2cccc(-c3ccco3)c2)CCN1Cc1ccsc1 (stereo not drawn) | inconclusive: 0.0326 µM [activator, full curve, poor fit] | 
Cc1ccc(/C=N\NC(=O)CC(=O)NCCc2ccccc2)cc1 |  | inactive: 2.54%
COc1ccc2sc3ccccc3c(=O)c2c1 | inconclusive: 23.1 µM [activator, single point] | 
O=C(N/N=C1\CC(c2ccccc2)Oc2ccccc21)c1cccnc1 (stereo not drawn) | inconclusive: 29.1 µM [activator, single point] | 
C#CCN(CC=C)C(=O)c1ccc(OC2CCN(S(=O)(=O)N(C)C)CC2)cc1 | inconclusive: 29.1 µM [activator, single point] | 
Cc1cc2nc(N3C(=O)CNC3=S)sc2cc1C | inconclusive: 29.1 µM [activator, single point] | 
Cc1ccc(C)c(SCC(=O)OC/C(O)=C(\C#N)c2nc3ccccc3[nH]2)c1 | inconclusive: 29.1 µM [activator, single point] | 
O=C(Cn1nc2ccccc2n1)N/N=C/c1cc(Cl)cc([N+](=O)[O-])c1O | active: 11.6 µM | 
Cc1ccc(C)c(N2CCN(C(=O)c3ccc(Cn4c(=O)[nH]c5ccccc5c4=O)cc3)CC2)c1 | inconclusive: 18.4 µM [activator, single point] | 
COc1ccc(NS(=O)(=O)c2ccc(C(=O)N(C)Cc3ccc(C)o3)cc2)cc1 |  | inactive: -31.9%
CCOC(=O)CCNC(=O)N1CCCC(CCC(=O)N(C)CCc2ccccn2)C1 (stereo not drawn) | inconclusive: 23.1 µM [activator, partial curve, poor fit] | 
CC1CCN(CCOc2ccc(C(=O)c3ccccc3)cc2)CC1 | inconclusive: 6.51 µM [activator, partial curve, poor fit] | 
CCCOc1ccc(CN(CCO)CCO)cc1C(=O)OC | inconclusive: 29.1 µM [activator, single point] | 
O=C(Nc1cc(S(=O)(=O)N2CCOCC2)ccc1O)c1ccc(NS(=O)(=O)c2ccc(Cl)s2)cc1 |  | inactive: 106%
O=C(NCc1cccnc1)c1ccc([N+](=O)[O-])o1 | active: 2.91 µM | 
NC(=O)c1ccccc1NC(=O)N1CCOCC1 | inconclusive: 1.84 µM [activator, full curve, poor fit] | 

Some of the entries so far, in CSV form:
Structure (SMILES),Potency,re-replication activation
Cc1cc2nc(N3C(=O)CNC3=S)sc2cc1C,"inconclusive: 29.1 µM [activator, single point]",
Cc1ccc(C)c(SCC(=O)OC/C(O)=C(\C#N)c2nc3ccccc3[nH]2)c1,"inconclusive: 29.1 µM [activator, single point]",
